No constants are given. Whether binding was seen depends on the method and setting. In cells and extracts the contact can be indirect. Some binding calls cover weakened binding; strength is not graded here.
Columns and labels:
[1] = molecular target: Histone deacetylase-3 (UniProt O15379); assay: co-IP; reverse: HEK293T whole cell lysates (500 ug, MPER); immunoprecipitation with anti-HDAC3 (B-12, sc-17795) on Protein G Sepharose, overnight at 4°C; blot with anti-ataxin-7 (K)
[2] = molecular target: ataxin-7-10Q (wild type) (UniProt O15265); assay: co-IP; HEK293T whole cell lysates (500 ug, MPER) of cells expressing HDAC3 and ataxin-7-10Q or ataxin-7-92Q; immunoprecipitation with anti-ataxin-7 (PA1-749) on Protein G Sepharose, overnight at 4°C; blot with anti-HDAC3 (N-19)

Chains of the proteins cited; added tags and fusions are not shown.
UniProt O15379: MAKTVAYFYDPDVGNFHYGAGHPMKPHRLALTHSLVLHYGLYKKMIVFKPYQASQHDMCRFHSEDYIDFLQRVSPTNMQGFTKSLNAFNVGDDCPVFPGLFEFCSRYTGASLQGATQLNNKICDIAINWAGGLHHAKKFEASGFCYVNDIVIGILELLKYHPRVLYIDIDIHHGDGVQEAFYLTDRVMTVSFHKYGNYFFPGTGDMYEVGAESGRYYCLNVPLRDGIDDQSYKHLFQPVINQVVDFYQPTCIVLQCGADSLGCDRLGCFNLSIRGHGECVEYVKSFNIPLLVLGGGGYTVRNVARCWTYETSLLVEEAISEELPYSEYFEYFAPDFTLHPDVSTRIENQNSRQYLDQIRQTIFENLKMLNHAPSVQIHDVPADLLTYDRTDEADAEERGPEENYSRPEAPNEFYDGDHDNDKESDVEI
UniProt O15265: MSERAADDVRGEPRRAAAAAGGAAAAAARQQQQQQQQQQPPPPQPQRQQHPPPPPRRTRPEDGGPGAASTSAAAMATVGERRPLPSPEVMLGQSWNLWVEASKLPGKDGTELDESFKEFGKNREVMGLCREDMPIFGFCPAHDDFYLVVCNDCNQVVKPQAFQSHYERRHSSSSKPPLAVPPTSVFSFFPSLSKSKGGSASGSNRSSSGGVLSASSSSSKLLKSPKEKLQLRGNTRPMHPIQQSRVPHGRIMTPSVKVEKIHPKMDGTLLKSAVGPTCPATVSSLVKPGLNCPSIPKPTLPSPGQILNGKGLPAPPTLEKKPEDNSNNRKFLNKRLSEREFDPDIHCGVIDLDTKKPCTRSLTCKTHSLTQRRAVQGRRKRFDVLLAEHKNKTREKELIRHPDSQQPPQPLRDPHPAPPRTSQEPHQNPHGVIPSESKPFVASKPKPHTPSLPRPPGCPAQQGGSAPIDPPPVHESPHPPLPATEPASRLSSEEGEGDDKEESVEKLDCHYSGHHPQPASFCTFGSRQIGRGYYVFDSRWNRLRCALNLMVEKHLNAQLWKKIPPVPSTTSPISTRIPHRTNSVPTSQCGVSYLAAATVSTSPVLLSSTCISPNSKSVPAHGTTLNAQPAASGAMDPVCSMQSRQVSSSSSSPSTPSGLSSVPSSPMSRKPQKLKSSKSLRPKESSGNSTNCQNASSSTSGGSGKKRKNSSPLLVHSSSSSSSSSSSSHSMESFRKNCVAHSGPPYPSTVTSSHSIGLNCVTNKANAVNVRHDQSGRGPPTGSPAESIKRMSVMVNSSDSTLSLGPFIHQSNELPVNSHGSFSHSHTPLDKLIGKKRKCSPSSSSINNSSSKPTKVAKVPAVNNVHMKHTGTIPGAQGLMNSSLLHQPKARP

Substance	binding [1]	binding [2]
ataxin-7-10Q (wild type) (from UniProt O15265 1-892)	binds	
Histone deacetylase-3 (from UniProt O15379 1-428) (enzyme)		binds
